The other results are listed elsewhere or left out. The main result of the screen is listed elsewhere. These columns were measured beside it and carry no call. Compounds called inactive in the main read-out are mostly missing here. The note in brackets gives the kind of curve behind each potency; many fits are weak.
Experiment: qHTS Assay for Modulators of Lamin A Splicing
Details: HeLa LMNA splicing GFP/RFP minigene ratio, 48 h
How it was run: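 S3 HeLa stable clones carrying a lamin A-EGFP splicing minigene plus DsRed2 were seeded at 600 cells/well in Opti-MEM with 2% FBS, pin-dosed and incubated 48 h at 37°C. Acumen cytometry (488 nm) gave the GFP/RFP total-intensity ratio.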

[1] = measured here: GFP splicing reporter channel
[2] = measured here: RFP viability control channel

| SMILES | AC50 [1] | AC50 [2] |
| --- | --- | --- |
| O=C(NCCN1CCOCC1)Nc1ccc(F)cc1 | 0.282 µM [falling, partial curve, poor fit] | 5.62 µM [falling, partial curve, poor fit] |
| O=C(Nc1cccc(Cl)c1Cl)c1ccc(-c2ccccc2)cc1 | 6.31 µM [falling, full curve, poor fit] | 6.31 µM [falling, partial curve, poor fit] |
| Cc1ccc(O)c(/C=N/NC(=O)c2[nH]ncc2Br)c1 |  | 14.1 µM [rising, partial curve] |
| COc1ccc(-n2c(=S)[nH]c3c(oc4ccccc43)c2=O)cc1 |  | 20 µM [rising, single point] |
| CCn1nc(C)c(/C=N/NC(=S)Nc2ccc(Cl)cc2Cl)c1C | 15.8 µM [rising, single point] |  |
| CN(C)c1ccc(-c2nc(-n3ccnc3)c3ccccc3n2)cc1 | 2.82 µM [falling, full curve] | 4.47 µM [falling, partial curve] |
| CCOc1ccc(NC(=O)c2cnn3c2NC(c2cccc(OC)c2)=CC3c2ccccc2)cc1 (stereo unspecified) | 0.112 µM [rising, full curve, poor fit] |  |
| Cn1nc(C(F)(F)F)c(/C=N/OC(=O)c2ccccc2Cl)c1SCc1ccccc1Cl |  | 35.5 µM [rising, single point] |
| Cc1cc(N2CCCC2=O)cc(C)c1S(N)(=O)=O |  | 11.2 µM [falling, partial curve, poor fit] |
| CCOC(=O)c1ccc(NC(=O)c2c(NCc3cccs3)sc3c2CCCC3)cc1 |  | 35.5 µM [rising, single point] |
| CCc1ccc(S(=O)(=O)c2cn(C)c3cc(N4CCC(C)CC4)c(F)cc3c2=O)cc1 | 35.5 µM [rising, single point] |  |
| COc1ccc(C)cc1NC(=O)c1nnn(Cc2cccc(C(F)(F)F)c2)c1N | 5.01 µM [rising, partial curve] | 0.0891 µM [rising, full curve] |
| CC(NC(=O)c1ccc(CS(=O)(=O)c2ccc(Cl)cc2)o1)c1ccc2c(c1)OCCO2 (stereo unspecified) |  | 35.5 µM [rising, single point] |
| CCCCNC(=O)c1onc(CSc2cccc(C)c2)c1C(=O)O | 14.1 µM [rising, single point] | 31.6 µM [rising, single point] |
| CCCCCCCCCCCCCCCCCCOC[C@H](COP(=O)([O-])OCC[N+](C)(C)C)OC | 22.4 µM [falling, partial curve, poor fit] | 11.2 µM [falling, partial curve] |
| COc1ccc(/C=N/NC(=O)COc2ccccc2-c2ccccc2)cc1 |  | 3.98 µM [rising, partial curve] |
| CCC(CO)NS(=O)(=O)c1cc(-c2nn(C)c(=O)c3ccccc23)ccc1C (stereo unspecified) | 2.82 µM [falling, partial curve] | 1.26 µM [falling, partial curve] |
| Cc1occc1C(=O)NNC(=O)c1cccc(F)c1 | 0.00316 µM [falling, full curve, poor fit] | 5.62 µM [falling, single point] |
| CCc1ccc(NC(=O)Cn2c3[n+](c4c(F)c(F)ccc42)CCCCC3)cc1 | 0.0891 µM [falling, full curve, poor fit] |  |
| CCOC(=O)Nc1cccc(OCC(=O)Nc2ccc(OC)cc2OC)c1 | 11.2 µM [rising, partial curve] | 15.8 µM [rising, partial curve] |
| N=C1S/C(=C\c2ccc(-c3cccc(Cl)c3)o2)C(=O)N1c1nccs1 |  | 2.51 µM [rising, full curve] |
| COCCNC(=O)CCCn1c(=O)c2cc(OC)c(OC)cc2n(CC(=O)NCCC2=CCCCC2)c1=O | 0.794 µM [rising, full curve, poor fit] | 0.631 µM [rising, full curve, poor fit] |
| COc1cc(NC(=O)CN2C(=O)C(c3ccccc3)=NC23CCCCCC3)cc(OC)c1 |  | 17.8 µM [rising, single point] |
| Cc1cc(N2CCC(C(=O)N3CCN(c4cccc(C)c4C)CC3)CC2)n2ncnc2n1 | 0.891 µM [rising, partial curve] | 11.2 µM [rising, partial curve] |
| Oc1ccc2ccccc2c1CN1CCCC1 | 0.00447 µM [rising, full curve, poor fit] |  |
| O=Cc1ccc(Sc2nnc(-c3ccccc3)o2)c([N+](=O)[O-])c1 | 22.4 µM [falling, single point] |  |
| CCC(=O)N(CC)c1nc(-c2ccc(OC)cc2)cs1 | 11.2 µM [rising, single point] | 15.8 µM [rising, single point] |
| Cc1ccccc1NC(=S)NNC(=O)c1cccc(Br)c1 | 0.282 µM [falling, full curve, poor fit] | 0.631 µM [falling, full curve, poor fit] |

For reference, two of the compounds above.

| SMILES | AC50 [1] | AC50 [2] |
| --- | --- | --- |
| CCOc1ccc(NC(=O)c2cnn3c2NC(c2cccc(OC)c2)=CC3c2ccccc2)cc1 (stereo unspecified) | 0.112 µM [rising, full curve, poor fit] |  |
| Cn1nc(C(F)(F)F)c(/C=N/OC(=O)c2ccccc2Cl)c1SCc1ccccc1Cl |  | 35.5 µM [rising, single point] |

Next part:

| SMILES | AC50 [1] | AC50 [2] |
| --- | --- | --- |
| N/C(=N/OS(=O)(=O)c1ccc([N+](=O)[O-])cc1)c1ccncc1 | 0.501 µM [rising, full curve, poor fit] |  |
| CC(/C=C1\SC(=S)N(NC(=O)c2cccc(O)c2)C1=O)=C\c1ccccc1 |  | 35.5 µM [rising, single point] |
| COc1cc(C(=O)NC(=S)Nc2ccc(NC(=O)c3ccco3)cc2)cc(OC)c1OC | 35.5 µM [falling, single point] | 35.5 µM [falling, single point] |
| CC(C)c1ccc(C(=O)Nc2cc(-c3ccccc3F)nn2-c2ccccc2)cc1 | 0.0282 µM [rising, full curve, poor fit] |  |
| O=C1C2C3C=CC(CC3)C2C(=O)N1/N=C/c1ccc(O)c(O)c1 (stereo unspecified) | 35.5 µM [falling, single point] |  |
| COc1ccc(CN2CCN(CC=C(C)C)C(CCO)C2)cc1Cn1cccn1 (stereo unspecified) |  | 0.00501 µM [falling, full curve, poor fit] |
| O=C(C1CCC(CNS(=O)(=O)c2cccc3cccnc23)CC1)N1CCc2ccccc21 (stereo unspecified) |  | 15.8 µM [rising, single point] |
| CCOc1nc(C)cc(COC)c1C(N)=O | 0.562 µM [rising, full curve, poor fit] |  |
| Cc1ccc(C)c(OCC(=O)Nc2ccc3c(c2)OCO3)c1 |  | 17.8 µM [rising, partial curve, poor fit] |
| C=CCNCCCOc1ccc(Cl)cc1C(C)(C)C | 35.5 µM [falling, single point] |  |
| CSc1ccccc1NC(=O)C1CC(c2ccccc2O)=NO1 (stereo unspecified) | 17.8 µM [rising, partial curve, poor fit] | 14.1 µM [rising, partial curve] |
| Cc1ccc(-c2nc(CCN3C(=O)c4ccccc4C3=O)cs2)cc1 | 12.6 µM [falling, single point] |  |
| Cc1cccc(C(=O)N2CCc3cc(CNS(=O)(=O)c4ccc(Cl)s4)ccc32)c1 | 0.398 µM [rising, single point] |  |
| CC(Sc1ncc(C(F)(F)F)cc1Cl)C(=O)NC(N)=O (stereo unspecified) | 0.501 µM [rising, partial curve, poor fit] |  |
| O=C(NCc1ccccc1)c1ccc(CSc2nc3cccnc3n2Cc2cccc(F)c2)cc1 | 11.2 µM [falling, partial curve] | 17.8 µM [falling, partial curve] |
| Cc1ccc(C(=O)c2cnc3cc4c(cc3c2S(=O)(=O)c2ccccc2)OCCO4)cc1 | 12.6 µM [falling, partial curve, poor fit] |  |
| COc1ccc(CN(C)C(C)C(=O)Nc2ccc([N+](=O)[O-])cc2Cl)cc1OC (stereo unspecified) | 14.1 µM [rising, partial curve] | 20 µM [rising, partial curve] |
| COc1cc2nc(C3CCC3)nc(N3CCN(c4ccccn4)CC3)c2cc1OC | 11.2 µM [rising, single point] | 15.8 µM [rising, single point] |
| CCOC(=O)c1sc(NC(=O)c2ccc(S(=O)(=O)N3CCOCC3)cc2)nc1-c1ccccc1 |  | 31.6 µM [rising, single point] |
| COc1cc(OC)c(C(=O)OC(C)C(=O)Nc2cc(C(F)(F)F)ccc2Cl)cc1OC (stereo unspecified) | 11.2 µM [rising, single point] | 20 µM [rising, partial curve] |
| O=C(c1ccncc1)c1ccc(Br)cc1 |  | 17.8 µM [rising, single point] |
| Cc1ccccc1CN1C(=O)c2ccccc2Sc2ccc(C(=O)N3CCCC3)cc21 |  | 0.0316 µM [falling, full curve, poor fit] |
| CCCc1nc2ccccc2n2c(-c3ccccc3)c3c(=O)n(C)c(=O)n(C)c3c12 | 12.6 µM [rising, single point] | 20 µM [rising, single point] |
| O=C1CCCc2c1[nH]c1ccc(Cl)cc21 |  | 1.41 µM [falling, full curve] |
| COc1ccc(CNC(=O)c2cc(SC)ccc2Cl)cc1OC |  | 14.1 µM [rising, single point] |
| Cc1cccc(CN2CCN(C(=S)Nc3ccccc3)CC2)c1 | 20 µM [falling, partial curve, poor fit] | 22.4 µM [falling, partial curve, poor fit] |
| Cc1cc(C(=O)COc2ccccc2C(N)=O)c(C)n1C |  | 22.4 µM [rising, single point] |

— PubChem BioAssay AID1487 (National Center for Advancing Translational Sciences (NCATS), 2009)
